Laboratory results: PubChem BioAssay AID1224830 (NIAID, 2016)
Here is an unselected part of about 18,000 deposited reagents. Of all reagents, about 2,900 (16%) are marked active. 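Calls are made per well; low scores hint the gene aids the LPS response, high scores that it dampens it.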 Repeated entries: four replicate wells of each siRNA pool.

Screen: 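Regulators of TLR4 signalling towards TNF-alpha in macrophage-like cells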 (primary screen)
Cells: human THP-1 monocytic leukaemia cells, TNF dual-luciferase reporter clone, PMA-differentiated to macrophage-like cells
Knock-down reagent: siRNA pool against human genes, 50 nM
Timing: LPS for 4 h, given about 3 days after siRNA transfection
Conditions: bacterial LPS (TLR4 ligand), 10 ng/ml
Measurement: 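Ratio of firefly to renilla light, scaled to the plate median and expressed as a robust z-score per replicate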
Scale: TNF reporter robust z-score: higher = stronger TNF reporter response to LPS
Active means: 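Each well counts as active if its z-score is over 2.8 or under -1.5; controls are left without a call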

After knock-down of MREG, the record shows TNF reporter robust z-score 1.5; inactive.
Silencing of MREG resulted in: TNF reporter robust z-score 0.1; inactive.
Against MREG the deposit lists TNF reporter robust z-score -0.8; inactive.
Against MREG, the values are TNF reporter robust z-score 0.36; inactive.
After knock-down of GPCPD1, the record shows TNF reporter robust z-score -0.19; inactive.
With knock-down of GPCPD1 the results were TNF reporter robust z-score 0.08; inactive.
For GPCPD1, the entry reads TNF reporter robust z-score 0.07; inactive.
For GPCPD1, the values are TNF reporter robust z-score 1.1; inactive.
For CDYL, the values are TNF reporter robust z-score 0.63; inactive.
Against CDYL, the values are TNF reporter robust z-score -0.33; inactive.
Knock-down of CDYL came out at: TNF reporter robust z-score 0.47; inactive.
After knock-down of CDYL, the record shows TNF reporter robust z-score -1; inactive.
Silencing of MMP9 gave: TNF reporter robust z-score -0.68; inactive.
Silencing of MMP9 came out at: TNF reporter robust z-score -0.11; inactive.
Against MMP9 the deposit lists TNF reporter robust z-score 0.84; inactive.
After knock-down of MMP9, the record shows TNF reporter robust z-score 0.54; inactive.
Against DIO2, the values are TNF reporter robust z-score -0.26; inactive.
Depletion of DIO2 gave: TNF reporter robust z-score 14.2; active.
With knock-down of DIO2, the record shows TNF reporter robust z-score 2.2; inactive.
With knock-down of DIO2, the record shows TNF reporter robust z-score 0.82; inactive.
Silencing of RAE1 came out at: TNF reporter robust z-score -0.64; inactive.
RAE1 showed TNF reporter robust z-score -0.37; inactive.
Against RAE1, the values are TNF reporter robust z-score -1.34; inactive.
RAE1 showed TNF reporter robust z-score -1.07; inactive.
After knock-down of RPS7, the record shows TNF reporter robust z-score -0.59; inactive.
Against RPS7, the values are TNF reporter robust z-score 1.15; inactive.
For RPS7, the values are TNF reporter robust z-score -0.34; inactive.
After knock-down of RPS7, the record shows TNF reporter robust z-score 0.59; inactive.
SEPTIN7 gave TNF reporter robust z-score 0.98; inactive.
For SEPTIN7, the entry reads TNF reporter robust z-score 0.79; inactive.
For SEPTIN7, the entry reads TNF reporter robust z-score 0.49; inactive.
Depletion of SEPTIN7 resulted in: TNF reporter robust z-score 1.13; inactive.
PSME4 showed TNF reporter robust z-score -0.69; inactive.
PSME4 scored TNF reporter robust z-score -0.17; inactive.
For PSME4, the values are TNF reporter robust z-score -0.66; inactive.
With knock-down of PSME4, the record shows TNF reporter robust z-score -0.04; inactive.
With knock-down of LDLRAD4, the screen gave TNF reporter robust z-score 0.18; inactive.
After knock-down of LDLRAD4, the screen gave TNF reporter robust z-score 0.99; inactive.
After knock-down of LDLRAD4, the record shows TNF reporter robust z-score 1; inactive.
Depletion of LDLRAD4 came out at: TNF reporter robust z-score 1.15; inactive.
With knock-down of ZFHX4, the screen gave TNF reporter robust z-score -0.54; inactive.
Depletion of ZFHX4 gave: TNF reporter robust z-score 0.2; inactive.
For ZFHX4 the deposit lists TNF reporter robust z-score -1.36; inactive.
ZFHX4 showed TNF reporter robust z-score 0.41; inactive.
With knock-down of MAD1L1 the results were TNF reporter robust z-score 1.95; inactive.
Depletion of MAD1L1 resulted in: TNF reporter robust z-score 6.05; active.
MAD1L1 gave TNF reporter robust z-score 1.71; inactive.
MAD1L1 showed TNF reporter robust z-score 2.95; active.
With knock-down of OLFM2 the results were TNF reporter robust z-score -1.51; active.
With knock-down of OLFM2 the results were TNF reporter robust z-score -0.46; inactive.
After knock-down of OLFM2, the screen gave TNF reporter robust z-score -0.7; inactive.
Against OLFM2, the values are TNF reporter robust z-score -0.17; inactive.
For CHRDL1, the entry reads TNF reporter robust z-score -0.8; inactive.
With knock-down of CHRDL1, the screen gave TNF reporter robust z-score -0.58; inactive.
Knock-down of CHRDL1 resulted in: TNF reporter robust z-score -0.35; inactive.
Depletion of CHRDL1 resulted in: TNF reporter robust z-score -0.59; inactive.
After knock-down of TUBB1 the results were TNF reporter robust z-score 0.29; inactive.
TUBB1 showed TNF reporter robust z-score 0.25; inactive.
After knock-down of TUBB1 the results were TNF reporter robust z-score 3.33; active.
Against TUBB1, the values are TNF reporter robust z-score -0.66; inactive.
